From publication PMC7890835
No constants are given. Whether binding was seen depends on the method and setting. Binding seen in cells or lysates may run through a third protein. Some binding calls cover weakened binding; strength is not graded here. For part of these data: Sequences can lack the tags named with a protein. Values belong to the binder of their own block, whether it stands above or below them.

How the values were obtained:
[1] = target: T1, Flag-RNF152 (human (cDNA from 293 T or HepG2 cells)) (UniProt Q8N8N0); experiment: co-IP; lysates of 293 T cells transfected with Flag-RNF152 for 36 h, immunoprecipitated with Flag M2 beads, immunoblot with anti-Flag or anti-TSPAN12; IP buffer 100 mM NaCl, 20 mM Tris-Cl pH 8.0, 0.5 mM EDTA, 0.5% NP-40
T1 sequence: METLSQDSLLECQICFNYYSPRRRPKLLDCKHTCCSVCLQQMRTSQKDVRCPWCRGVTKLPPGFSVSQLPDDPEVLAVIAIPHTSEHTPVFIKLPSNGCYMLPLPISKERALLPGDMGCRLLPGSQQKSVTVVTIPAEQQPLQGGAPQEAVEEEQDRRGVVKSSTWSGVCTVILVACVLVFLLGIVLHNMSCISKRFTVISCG

[2] = target: T2, RNF152 (endogenous) (human (endogenous in HuH6)) (UniProt Q8N8N0); experiment: co-IP; lysates of MG132-treated HuH6 cells, immunoprecipitated with IgG or anti-RNF152 antibody, immunoblot; endogenous proteins
T2 sequence: T1 sequence

[3] = target: T3, GST-RNF152 (human (cDNA from 293 T or HepG2 cells)) (UniProt Q8N8N0); experiment: pull-down; lysate of 293 T cells transfected with Flag-tagged TSPAN12 incubated with GST alone or GST-RNF152 immobilized on GST-Sepharose beads; bound proteins detected by immunoblot; only the target purified
T3 sequence: T1 sequence

- binding [1]: binds
- binding [2]: binds
B1: TSPAN12 (endogenous) (protein, UniProt O95859 1-305)
chain: MAREDSVKCLRCLLYALNLLFWLMSISVLAVSAWMRDYLNNVLTLTAETRVEEAVILTYFPVVHPVMIAVCCFLIIVGMLGYCGTVKRNLLLLAWYFGSLLVIFCVELACGVWTYEQELMVPVQWSDMVTLKARMTNYGLPRYRWLTHAWNFFQREFKCCGVVYFTDWLEMTEMDWPPDSCCVREFPGCSKQAHQEDLSDLYQEGCGKKMYSFLRGTKQLQVLRFLGISIGVTQILAMILTITLLWALYYDRREPGTDQMMSLKNDNSQHLSCPSVELLKPSLSRIFEHTSMANSFNTHFEMEEL

- binding [3]: binds
B2: Flag-tagged TSPAN12 (protein, UniProt O95859 1-305)
chain: B1 chain
